Literature values in paper PMC3322284 (Journal of Pharmacological and Toxicological Methods, 2012).

Details: humans; ref Fenner et al., 2009; cited from earlier work

## CCCCc1oc2ccccc2c1C(=O)c1cc(I)c(OCCN(CC)CC)c(I)c1 [Amiodarone]
  [I] peak plasma concentration of drug at steady state: 2.2 µM
